# Measurements published in patent US20250154171A1, “RAS INHIBITORS” (Revolution Medicines, Inc., priority 2023, published 2025).
# The chains behind the UniProt entries cited, without tags or fusion partners. Where a name states a change or a piece, a line headed by the entry shows the natural chain unless it says otherwise. Residues count along the entry.
# UniProt P01116, 1-188 isoform P01116-2 G12V: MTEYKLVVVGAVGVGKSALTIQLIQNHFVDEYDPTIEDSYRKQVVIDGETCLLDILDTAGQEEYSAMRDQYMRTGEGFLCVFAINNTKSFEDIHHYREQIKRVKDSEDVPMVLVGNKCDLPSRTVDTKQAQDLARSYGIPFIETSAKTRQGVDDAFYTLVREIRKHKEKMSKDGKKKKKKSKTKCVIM
# UniProt P62937, whole entry: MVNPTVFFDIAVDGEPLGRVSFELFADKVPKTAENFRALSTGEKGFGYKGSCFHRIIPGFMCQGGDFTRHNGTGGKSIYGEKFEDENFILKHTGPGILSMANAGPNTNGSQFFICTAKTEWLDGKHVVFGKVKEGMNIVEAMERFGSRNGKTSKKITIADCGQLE
# Some results were stated once for a whole list of compounds, not compound by compound.
# Experiments:
# Capan-1 (K-Ras G12V) = assay: CellTiter-Glo cell viability assay, Capan-1; type: cell-based, human; settings: 5-day treatment, Capan-1 versus A375
# K-RasG12V = K-RasG12V (Homo sapiens, UniProt P01116+P62937, G12V); assay: Disruption of BRAF RBD interaction with K-Ras (TR-FRET / MOA assay), K-RasG12V; type: biochemical; settings: TR-FRET with cyclophilin A and GST-BRAF RBD, read-out: IC50 with respect to K-RasG12V (disruption of BRAF RBD interaction)
Structure (SMILES),decrease in cell viability with respect to KRAS G12V (Capan-1) versus wild-type KRAS (A375) (Capan-1 (K-Ras G12V)),IC50 (K-RasG12V) [nM]
CO[C@@H](C)c1ncccc1-c1c2c3cc(ccc3n1CCO[C@H]1CCOC(C)(C)C1)-c1csc(n1)[C@@H](N1CC3(COC3)C1)[C@H](NC(=O)[C@@H]1OC[C@@H]1C)C(=O)N1CCC[C@H](N1)C(=O)OCC(C)(C)C2 (racemic) [Example A378],greater decrease in cell viability,< 1000
CO[C@@H](C)c1ncc(N2CCN(C3CC3)CC2)cc1-c1c2c3cc(ccc3n1CCO[C@H]1CCOC(C)(C)C1)-c1csc(n1)[C@@H](N1CCCC1)[C@H](NC(=O)[C@@H]1[C@@H](C)[C@H]1c1ccncn1)C(=O)N1N[C@H](C(=O)OCC(C)(C)C2)C2CC1C2 (racemic) [Example A380],greater decrease in cell viability,< 1000
CO[C@@H](C)c1ncc(N2CCN(C3CC3)CC2)cc1-c1c2c3cc(ccc3n1CCO[C@H]1CCOC(C)(C)C1)-c1csc(n1)[C@@H](N1CCCC1)[C@H](NC(=O)[C@@H]1[C@@H](C)[C@H]1c1ccccn1)C(=O)N1N[C@H](C(=O)OCC(C)(C)C2)C2CC1C2 (racemic) [Example A381],greater decrease in cell viability,< 1000
CO[C@@H](C)c1ncc(N2CCN(C3CC3)CC2)cc1-c1c2c3cc(ccc3n1CCOC1CCOCC1)-c1csc(n1)[C@@H](N1CC3(CCS(=O)(=O)C3)C1)[C@H](NC(=O)C13CC(C1)[C@H](C)O3)C(=O)N1CCC[C@H](N1)C(=O)OCC(C)(C)C2 (racemic) [Example A382],greater decrease in cell viability,< 1000
CO[C@@H](C)c1ncc(N2CCN(C3CC3)CC2)cc1-c1c2c3cc(ccc3n1CCOC1CCOCC1)-c1csc(n1)[C@@H](N1CC3(C1)CS(=O)(=O)C3)[C@H](NC(=O)[C@H]1[C@H](C)[C@@H]1C)C(=O)N1CCC[C@H](N1)C(=O)OCC(C)(C)C2 (racemic) [Example A383],greater decrease in cell viability,< 1000
CO[C@@H](C)c1ncc(N2CCN(C3CC3)CC2)cc1-c1c2c3cc(ccc3n1CCOC1CCOCC1)-c1csc(n1)[C@@H](N1CCC3(CCOC3)C1)[C@H](NC(=O)C13CC(C1)[C@H](C)O3)C(=O)N1CCC[C@H](N1)C(=O)OCC(C)(C)C2 (mixture of isomers) [Example A384],greater decrease in cell viability,< 1000
CO[C@@H](C)c1ncc(N2CCN(C3CC3)CC2)cc1-c1c2c3cc(ccc3n1CCOC1CCOCC1)-c1csc(n1)[C@@H](N1CC3(CCCOC3)C1)[C@H](NC(=O)[C@H]1[C@H](C)[C@@H]1C)C(=O)N1CCC[C@H](N1)C(=O)OCC(C)(C)C2 (racemic) [Example A385],greater decrease in cell viability,< 1000
CO[C@@H](C)c1ncc(N2CCN(C3CC3)CC2)cc1-c1c2c3cc(ccc3n1CCOC1CCOCC1)-c1csc(n1)[C@@H](N1CC3(CCCOC3)C1)[C@H](NC(=O)C13CC(C1)[C@H](C)O3)C(=O)N1CCC[C@H](N1)C(=O)OCC(C)(C)C2 (racemic) [Example A386],greater decrease in cell viability,< 1000
CO[C@@H](C)c1ncccc1-c1c2c3cc(ccc3n1CCO[C@H]1CCOC(C)(C)C1)-c1csc(n1)[C@@H](N1CC3(COC3)C1)[C@H](NC(=O)C13CC(C1)[C@@H](C)O3)C(=O)N1N[C@H](C(=O)OCC(C)(C)C2)C2CC1C2 (racemic) [Example A388],greater decrease in cell viability,< 1000
CO[C@@H](C)c1ncc(N2CCN(C3CC3)CC2)cc1-c1c2c3cc(ccc3n1CCOC1CCOCC1)-c1csc(n1)[C@@H](N1CC3(CCS(=O)(=O)C3)C1)[C@H](NC(=O)[C@H]1[C@H](C)[C@@H]1C)C(=O)N1CCC[C@H](N1)C(=O)OCC(C)(C)C2 (racemic) [Example A389],greater decrease in cell viability,< 1000
CCn1c(-c2cc(C3CCN(C4CC4)CC3)cnc2[C@H](C)OC)c2c3cc(ccc31)-c1csc(n1)[C@@H](N1CC3(COC3)C1)[C@H](NC(=O)C13CC(C1)[C@@H](C)O3)C(=O)N1N[C@H](C(=O)OCC(C)(C)C2)C2CC1C2 (racemic) [Example A390],greater decrease in cell viability,< 1000
CO[C@@H](C)c1ncccc1-c1c2c3cc(ccc3n1CCOC1CCOCC1)-c1csc(n1)[C@@H](OC[C@@H](C)N(C)C)[C@H](NC(=O)[C@@H]1[C@@H](C)[C@H]1c1ccncn1)C(=O)N1N[C@H](C(=O)OCC(C)(C)C2)C2CC1C2 (racemic) [Example A392],greater decrease in cell viability,< 1000
CO[C@@H](C)c1ncc(N2CCN(C3CC3)CC2)cc1-c1c2c3cc(ccc3n1CCOC1CCOCC1)-c1csc(n1)[C@@H](N1CC3(CCOC3)C1)[C@H](NC(=O)[C@H]1[C@H](C)[C@@H]1C)C(=O)N1CCC[C@H](N1)C(=O)OCC(C)(C)C2 (racemic) [Example A394],greater decrease in cell viability,< 1000
CO[C@@H](C)c1ncc(N2CCN(C3CC3)CC2)cc1-c1c2c3cc(ccc3n1CCOC1CCOCC1)-c1csc(n1)[C@@H](N1CC3(CCOC3)C1)[C@H](NC(=O)C13CC(C1)[C@@H](C)O3)C(=O)N1CCC[C@H](N1)C(=O)OCC(C)(C)C2 (racemic) [Example A395],greater decrease in cell viability,< 1000
CO[C@@H](C)c1ncc(N2CCN(C3CC3)CC2)cc1-c1c2c3cc(ccc3n1CCOC1CCOCC1)-c1csc(n1)[C@@H](N1CCOC[C@@H]1C#N)[C@H](NC(=O)[C@H]1C(c3ccncn3)[C@@H]1C)C(=O)N1CC3CC(C3)(N1)C(=O)OCC(C)(C)C2 (mixture of isomers) [Example A397],greater decrease in cell viability,< 1000
CCO[C@@H]1c2nc(cs2)-c2ccc3c(c2)c(c(-c2cc(N4CCN(C5CC5)CC4)cnc2[C@H](C)OC)n3CCOC2CCOCC2)CC(C)(C)COC(=O)[C@@H]2CCCN(N2)C(=O)[C@H]1NC(=O)C12CC(C)(C1)[C@H](C)O2 (racemic) [Example A398],greater decrease in cell viability,< 1000
CCO[C@@H]1c2nc(cs2)-c2ccc3c(c2)c(c(-c2cc(N4CCN(C5CC5)CC4)cnc2[C@H](C)OC)n3CCOC2CCOCC2)CC(C)(C)COC(=O)[C@@H]2CCCN(N2)C(=O)[C@H]1NC(=O)C12CC(C1)[C@H](C)O2 (racemic) [Example A399],greater decrease in cell viability,< 1000
CO[C@@H](C)c1ncc(N2CCN(C3CC3)CC2)cc1-c1c2c3cc(ccc3n1CCO[C@H]1CCOC(C)(C)C1)-c1csc(n1)[C@@H](N1CC3(COC3)C1)[C@H](NC(=O)[C@H]1OC[C@@H]1C)C(=O)N1CC3CC(C3)(N1)C(=O)OCC(C)(C)C2 (racemic) [Example A400],greater decrease in cell viability,< 1000
CO[C@@H](C)c1ncc(N2CCN(C3CC3)CC2)cc1-c1c2c3cc(ccc3n1CCOC1CCOCC1)-c1csc(n1)[C@@H](N1CCC1)[C@H](NC(=O)[C@@H]1[C@@H](C)[C@H]1c1ccncn1)C(=O)N1CCC[C@H](N1)C(=O)OCC(C)(C)C2 (racemic) [Example A402],greater decrease in cell viability,< 1000
CO[C@@H](C)c1ncc(N2CCN(C3CC3)CC2)cc1-c1c2c3cc(ccc3n1CCOC1CCOCC1)-c1csc(n1)[C@@H](N1CCC1)[C@H](NC(=O)C13CC(C1)[C@@H](C)O3)C(=O)N1CCC[C@H](N1)C(=O)OCC(C)(C)C2 (racemic) [Example A404],greater decrease in cell viability,< 1000
CO[C@@H](C)c1ncc(N2CCN(C3CC3)CC2)cc1-c1c2c3cc(ccc3n1CCOC1CCOCC1)-c1csc(n1)[C@@H](N1CCC1)[C@H](NC(=O)[C@@H]1OC[C@@H]1C)C(=O)N1CCC[C@H](N1)C(=O)OCC(C)(C)C2 (racemic) [Example A405],greater decrease in cell viability,< 1000
COC1CN([C@@H]2c3nc(cs3)-c3ccc4c(c3)c(c(-c3cc(N5CCN(C6CC6)CC5)cnc3[C@H](C)OC)n4CCOC3CCOCC3)CC(C)(C)COC(=O)[C@@H]3CCCN(N3)C(=O)[C@H]2NC(=O)[C@@H]2OC[C@@H]2C)C1 (racemic) [Example A406],greater decrease in cell viability,< 1000
CO[C@@H](C)c1ncc(N2CCN(C3CC3)CC2)cc1-c1c2c3cc(ccc3n1CCOC1CCOCC1)-c1csc(n1)[C@@H](N1CC3(COC3)C1)[C@H](NC(=O)[C@H]1OC[C@@H]1C)C(=O)N1N[C@H](C(=O)OCC(C)(C)C2)C2CC1C2 (racemic) [Example A407],greater decrease in cell viability,< 1000
CO[C@@H](C)c1ncc(N2CCN(C3CC3)CC2)cc1-c1c2c3cc(ccc3n1CCOC1CCOCC1)-c1csc(n1)[C@@H](N1CC3(COC3)C1)[C@H](NC(=O)[C@@H]1OC[C@@H]1C)C(=O)N1N[C@H](C(=O)OCC(C)(C)C2)C2CC1C2 (racemic) [Example A408],greater decrease in cell viability,< 1000
CO[C@@H](C)c1ncc(N2CCN(C3CC3)CC2)cc1-c1c2c3cc(ccc3n1CCOC1CCOCC1)-c1csc(n1)[C@@H](N1CC3(COC3)C1)[C@H](NC(=O)[C@@H]1OC[C@@H]1C)C(=O)N1CCC[C@H](N1)C(=O)OCC(C)(C)C2 (racemic) [Example A409],greater decrease in cell viability,< 1000
